Taken from: PubChem BioAssay AID652243 (Drosophila RNAi Screening Center, 2013)

Screen: 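Fly regulators of androgen-dependent reporter output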 (primary screen)
Cell system: Drosophila S2R+ cells
Knock-down reagent: long dsRNA against Drosophila genes
Timing: 72 h (48 h, then 24 h hormone)
Conditions: synthetic androgen R1881 at 10 nM for 24 h
Measurement: 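Per-well raw luminescence of the androgen-driven firefly reporter and of the Renilla control, two replicates each, without normalisation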
Direction: firefly reporter light: higher = more light from androgen-responsive reporter; Renilla control light: higher = more constitutive control signal (cell number, transfection)
Hit rule: 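Hit when the log firefly-to-Renilla ratio dropped or increased by a fixed fold versus the mean of GFP or LacZ controls across duplicate plates; lowering cut given as 1.5 and as 3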
Meaning of the calls: active = hit: reporter lowered or raised; inactive = no hit
In all, the deposit lists about 24,000 reagents; below is a random part of those that have a named target and a result. Over the whole deposit, 246 (1%) are marked active. 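Plates not normalised; calls are printed but the firefly/Renilla ratio behind them is not deposited; fold cut for lowering reported inconsistently.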 The raw values are shown without normalisation. Reagents against one gene are numbered here. A plus sign joins genes that one reagent is predicted to hit. No sequences are given here. Not given: the amount of reagent.

no.	gene	reagent no.	firefly reporter light, replicate 1	firefly reporter light, replicate 2	Renilla control light, replicate 1	Renilla control light, replicate 2	outcome
1	CG15764 (GeneID 31516)	1	2.73e5	2.69e5	3.05e6	2.79e6	inactive
2	CG15764 (GeneID 31516)	2	8.83e5	6.65e5	9.16e5	7.35e5	inactive
3	lncRNA:CR42862 + CG33229	1	1.03e6	9.66e5	1.45e6	1.29e6	inactive
4	Muc14A (GeneID 318097)	1	8.56e5	6.98e5	1.02e6	6.78e5	inactive
5	Muc14A (GeneID 318097)	2	9.80e5	7.33e5	2.47e6	2.21e6	inactive
6	p-cup (GeneID 32727)	1	3.36e5	2.97e5	3.48e6	3.34e6	inactive
7	CG11779 (GeneID 42298)	1	67149	1.09e5	5.21e5	4.87e5	inactive
8	Rtnl2 (GeneID 40903)	1	1.00e5	1.02e5	1.52e6	1.36e6	inactive
9	Rtnl2 (GeneID 40903)	2	7.12e5	6.25e5	2.87e6	2.39e6	inactive
10	Rtnl2 (GeneID 40903)	3	3.60e5	2.97e5	8.72e5	5.77e5	inactive
11	Cpr64Ac (GeneID 38510)	1	2.24e5	1.48e5	2.31e6	1.14e6	inactive
12	Cpr64Ac (GeneID 38510)	2	6.29e5	5.22e5	1.67e6	1.28e6	inactive
13	CAH13 (GeneID 36126)	1	2.94e5	2.27e5	1.42e6	1.48e6	inactive
14	CAH13 (GeneID 36126)	2	7.99e5	7.69e5	1.29e6	7.70e5	inactive
15	CG32488 (GeneID 326220)	1	4.10e5	4.21e5	2.97e6	4.37e6	inactive
16	CG32488 (GeneID 326220)	2	7.64e5	5.83e5	2.83e6	2.20e6	inactive
17	Ibf2 (GeneID 41102)	1	75571	1.03e5	1.63e6	1.57e6	inactive
18	hang (GeneID 32613)	1	4.84e5	4.49e5	3.78e5	2.59e5	inactive
19	hang (GeneID 32613)	2	7.87e5	8.58e5	1.04e6	1.04e6	inactive
20	CG13566 (GeneID 37813)	1	2.35e5	3.06e5	1.53e6	1.46e6	inactive
21	CG13566 (GeneID 37813)	2	9.08e5	7.90e5	1.24e6	1.37e6	inactive
22	CG11404 (GeneID 40474)	1	2.84e5	2.33e5	2.08e6	2.18e6	inactive
23	CG11404 (GeneID 40474)	2	3.94e5	3.60e5	5.88e5	7.15e5	inactive
24	tud (GeneID 37417)	1	1.89e5	2.00e5	1.37e6	1.59e6	inactive
25	CG17376 (GeneID 59227)	1	5.40e5	5.48e5	2.03e6	2.79e6	inactive
26	CG9411 (GeneID 32392)	1	62789	62854	9.28e5	8.84e5	inactive
27	CG9411 (GeneID 32392)	2	4.00e5	3.89e5	6.75e5	8.59e5	inactive
28	CG12133 (GeneID 36036)	1	2.98e5	2.62e5	1.42e6	1.74e6	inactive
29	CG12133 (GeneID 36036)	2	1.05e6	8.25e5	1.07e6	1.05e6	inactive
30	CG11322 (GeneID 33949)	1	2.68e5	2.01e5	3.15e6	2.27e6	inactive
31	CG11322 (GeneID 33949)	2	7.61e5	7.34e5	6.95e5	8.71e5	inactive
32	CG11322 (GeneID 33949)	3	4.89e5	6.66e5	1.97e6	1.88e6	inactive
33	TTLL12 (GeneID 35732)	1	2.34e5	2.46e5	1.35e6	1.42e6	inactive
34	vers (GeneID 39374)	1	6.64e5	5.79e5	1.18e6	8.53e5	inactive
35	CG9004 (GeneID 38303)	1	73816	99543	1.17e6	1.63e6	inactive
36	dos (GeneID 38321)	1	16928	38733	96333	1.33e5	inactive
37	dos (GeneID 38321)	2	68252	30478	5.98e5	4.71e5	inactive
38	dos (GeneID 38321)	3	5.41e5	4.97e5	3.66e5	2.96e5	inactive
39	CG43691 (GeneID 14462585)	1	2.50e5	2.11e5	2.04e6	1.85e6	inactive
40	CG43691 (GeneID 14462585)	2	2.12e5	1.43e5	1.76e6	1.06e6	inactive
41	CG31391 (GeneID 41280)	1	1.07e5	1.01e5	1.43e6	1.11e6	inactive
42	Mnr (GeneID 33098)	1	1.98e5	1.33e5	7.51e5	5.11e5	inactive
43	Mnr (GeneID 33098)	2	5.73e5	5.60e5	1.77e6	1.75e6	inactive
44	Mnr (GeneID 33098)	3	4.98e5	7.83e5	9.72e5	1.33e6	inactive
45	CG10064 (GeneID 38761)	1	1.13e5	1.64e5	1.43e6	1.60e6	inactive
46	PolA1 (GeneID 42553)	1	69623	77183	5.31e5	5.79e5	inactive
47	PolA1 (GeneID 42553)	2	6.85e5	4.21e5	1.32e6	8.24e5	inactive
48	CG15169 (GeneID 35161)	1	98656	1.33e5	8.24e5	1.21e6	inactive
49	snf (GeneID 31442)	1	35273	32296	2.95e5	2.98e5	inactive
50	snf (GeneID 31442)	2	8.88e5	5.28e5	4.66e6	2.16e6	inactive
51	snf (GeneID 31442)	3	4.20e5	3.86e5	1.12e6	9.36e5	inactive
52	Nrx-IV (GeneID 39387)	1	1.10e6	6.57e5	1.94e6	1.63e6	inactive
53	mRpL32 (GeneID 43698)	1	2.80e5	2.03e5	2.19e6	2.57e6	inactive
54	snoRNA:Psi28S-291 (GeneID 3772053)	1	1.05e6	8.83e5	1.63e6	1.80e6	inactive
55	brp (GeneID 35977)	1	3.91e5	2.50e5	2.39e6	2.03e6	inactive
56	brp (GeneID 35977)	2	2.97e5	2.41e5	1.59e6	1.48e6	inactive
57	brp (GeneID 35977)	3	2.15e5	1.96e5	1.61e6	1.43e6	inactive
58	brp (GeneID 35977)	4	5.11e5	5.46e5	1.58e6	8.88e5	inactive
59	brp (GeneID 35977)	5	8.00e5	7.21e5	1.45e6	1.54e6	inactive
60	brp (GeneID 35977)	6	3.49e5	3.87e5	1.42e6	1.41e6	inactive
